Results reported in article PMC8719716.

Sequences of proteins named here, by UniProt entry; tags and fusion partners are left off.
UniProt P70032: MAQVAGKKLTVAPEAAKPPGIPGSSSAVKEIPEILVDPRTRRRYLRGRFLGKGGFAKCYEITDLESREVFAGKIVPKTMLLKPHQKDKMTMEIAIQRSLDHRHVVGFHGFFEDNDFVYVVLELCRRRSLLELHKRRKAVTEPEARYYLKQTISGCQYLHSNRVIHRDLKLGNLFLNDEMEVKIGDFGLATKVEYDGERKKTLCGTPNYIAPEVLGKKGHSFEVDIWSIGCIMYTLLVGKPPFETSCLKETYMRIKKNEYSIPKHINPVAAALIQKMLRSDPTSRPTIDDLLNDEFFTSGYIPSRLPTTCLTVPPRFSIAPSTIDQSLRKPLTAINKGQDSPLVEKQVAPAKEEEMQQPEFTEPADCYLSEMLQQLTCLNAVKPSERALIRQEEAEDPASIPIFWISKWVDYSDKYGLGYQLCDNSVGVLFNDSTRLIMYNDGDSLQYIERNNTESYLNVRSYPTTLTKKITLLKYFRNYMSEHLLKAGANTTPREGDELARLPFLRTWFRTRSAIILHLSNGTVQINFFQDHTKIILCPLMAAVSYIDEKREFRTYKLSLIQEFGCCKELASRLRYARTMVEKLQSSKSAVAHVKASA

Biological target: T1, X. laevis CEP97 WT, exogenous, tag not named for the experiment (X. laevis) (UniProt Q6GPJ8)
T1 sequence: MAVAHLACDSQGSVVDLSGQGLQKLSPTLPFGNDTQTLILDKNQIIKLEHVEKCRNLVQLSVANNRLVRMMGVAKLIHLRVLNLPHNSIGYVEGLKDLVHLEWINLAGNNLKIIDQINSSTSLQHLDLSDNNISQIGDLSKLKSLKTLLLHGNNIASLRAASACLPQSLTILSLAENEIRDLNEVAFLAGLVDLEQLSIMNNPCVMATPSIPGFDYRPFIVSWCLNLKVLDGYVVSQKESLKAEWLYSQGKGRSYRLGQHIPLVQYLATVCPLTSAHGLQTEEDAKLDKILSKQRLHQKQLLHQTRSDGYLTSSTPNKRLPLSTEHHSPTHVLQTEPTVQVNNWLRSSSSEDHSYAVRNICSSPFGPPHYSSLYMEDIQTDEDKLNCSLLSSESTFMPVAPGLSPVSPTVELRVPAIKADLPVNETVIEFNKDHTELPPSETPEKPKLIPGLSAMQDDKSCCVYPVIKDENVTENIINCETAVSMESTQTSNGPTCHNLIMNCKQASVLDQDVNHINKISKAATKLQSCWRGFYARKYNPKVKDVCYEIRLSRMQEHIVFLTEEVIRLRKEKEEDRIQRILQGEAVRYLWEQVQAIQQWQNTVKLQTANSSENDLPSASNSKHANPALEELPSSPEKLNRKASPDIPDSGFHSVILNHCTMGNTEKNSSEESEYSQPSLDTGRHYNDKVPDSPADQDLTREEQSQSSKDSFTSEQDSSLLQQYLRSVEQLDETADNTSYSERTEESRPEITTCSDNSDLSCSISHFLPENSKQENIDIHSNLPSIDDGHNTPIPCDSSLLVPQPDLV
Assay: affinity purification with mass spectrometry; IP of exogenous CEP97 from neurula stage Xenopus embryos, bound proteins eluted with 4% SDS, trypsin digest, LC/MS-MS; two independent experiments

binding	Substance
binds	Dyrk1a, endogenous in Xenopus embryos (from UniProt Q2TAE3 1-750) (enzyme)
binds	Plk1, endogenous in Xenopus embryos (from UniProt P70032 1-598) (enzyme)

No constants are given. Whether binding was seen depends on the method and setting. In cells and extracts the contact can be indirect. These calls come from enrichment with a bait or labelling near it, and not all partners need be listed. Tags and fused reporters may be left off the sequences shown.
